The text below walks through data of publication PMC8464984, “AimR Adopts Preexisting Dimer Conformations for Specific Target Recognition in Lysis-Lysogeny Decisions of Bacillus Phage phi3T” (Biomolecules, 2021).

Results are given in words; binding and its absence hold for the method and conditions named.

Assay [1] has as its target T1, phAimR^C6S/C74S/C99S/C136S/C223S/C267S/D174C, labelled with Alexa488 and Cy5 (Bacillus phage phi3T) (UniProt P0DOE3).
T1 sequence (chain, Alexa Fluor 488 C5 maleimide or Cy5 maleimide on the cysteine at D174C): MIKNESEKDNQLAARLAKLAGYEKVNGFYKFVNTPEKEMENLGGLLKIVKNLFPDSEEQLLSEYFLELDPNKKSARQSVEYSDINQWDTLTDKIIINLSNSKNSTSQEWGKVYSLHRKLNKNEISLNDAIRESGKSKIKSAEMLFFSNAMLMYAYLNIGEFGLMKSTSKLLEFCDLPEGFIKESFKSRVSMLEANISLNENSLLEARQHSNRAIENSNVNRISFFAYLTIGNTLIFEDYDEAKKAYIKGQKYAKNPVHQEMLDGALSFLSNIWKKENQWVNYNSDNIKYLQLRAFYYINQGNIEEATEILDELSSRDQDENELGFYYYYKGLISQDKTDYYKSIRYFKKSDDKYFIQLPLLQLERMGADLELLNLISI
The experiment in a line: FRET or BRET; smFRET in solution; about 100 pM doubly labelled (Alexa488/Cy5) phAimR, peptide titrated; KD from the population of the enriched FRET state; 25 C, 20 mM Tris-HCl pH 7.5, 100 mM NaCl, 0.005% Tween 20, 1 mM L-ascorbic acid, 1 mM methylviologen; both purified.

The target in assay [2] is T2, phAimR^C6S/C74S/C99S/C136S/C223S/C267S/N103C, labelled with Alexa488 and Cy5 (Bacillus phage phi3T) (UniProt P0DOE3).
T2 sequence (chain, Alexa Fluor 488 C5 maleimide or Cy5 maleimide on the cysteine at N103C): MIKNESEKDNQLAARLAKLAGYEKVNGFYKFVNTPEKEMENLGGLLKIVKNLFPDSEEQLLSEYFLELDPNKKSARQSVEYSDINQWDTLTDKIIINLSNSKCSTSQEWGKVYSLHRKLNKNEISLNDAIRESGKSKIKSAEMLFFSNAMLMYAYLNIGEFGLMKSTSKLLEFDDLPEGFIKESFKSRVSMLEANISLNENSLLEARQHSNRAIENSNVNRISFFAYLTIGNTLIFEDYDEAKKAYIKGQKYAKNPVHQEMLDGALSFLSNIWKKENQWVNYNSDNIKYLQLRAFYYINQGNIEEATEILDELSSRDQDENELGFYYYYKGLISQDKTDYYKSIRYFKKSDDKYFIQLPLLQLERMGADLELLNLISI
Described as above.

For assay [3], the target named is phAimR carrying two amino acids substitutions (phAimR^Y341A/E371A) (Bacillus phage phi3T) (UniProt P0DOE3). The experiment in a line: SAXS; 100 uM protein with 200 uM SAIRGA peptide; room temperature; 25 mM Tris-HCl pH 8.0, 300 mM NaCl; both purified.
Assay [4] has the same target. The experiment in a line: SEC; Superdex 200 Increase 10/300 GL; 8.2 uM protein with 82 uM SAIRGA peptide; 25 mM Tris-HCl pH 8.0, 300 mM NaCl; both purified.
Assay [5] has the same target. The experiment in a line: condition: only with a 10-fold molar excess of SAIRGA peptide; AUC; sedimentation velocity, c(s) model; 0.64 mg/mL protein with 10-fold molar excess of SAIRGA peptide; 18 C, 55,000 r.p.m.; 25 mM Tris-HCl pH 8.0, 300 mM NaCl; both purified.
The target is the same in assay [6]. The experiment in a line: condition: only with a 10-fold molar excess of SAIRGA peptide; SEC-MALS; static light scattering; 1.6 mg/mL protein with 10-fold molar excess of SAIRGA; Superdex 200 Increase 10/300 with HELEOS multi-angle light scattering; 25 mM Tris-HCl pH 8.0, 300 mM NaCl; both purified.

As for GMPRGA [SPbeta arbitrium peptide (GMPRGA)], the binding result in assay [1] and in assay [2] was “no binding” in each case.

B1: phAimR carrying two amino acids substitutions (phAimR^Y341A/E371A) (natural protein, Bacillus phage phi3T)
chain: MIKNECEKDNQLAARLAKLAGYEKVNGFYKFVNTPEKEMENLGGLLKIVKNLFPDSEEQLLSEYFLELDPNKKCARQSVEYSDINQWDTLTDKIIINLCNSKNSTSQEWGKVYSLHRKLNKNEISLNDAIRESGKCKIKSAEMLFFSNAMLMYAYLNIGEFGLMKSTSKLLEFDDLPEGFIKESFKSRVSMLEANISLNENSLLEARQHSNRAIENSNVNRICFFAYLTIGNTLIFEDYDEAKKAYIKGQKYAKNPVHQEMLDGALCFLSNIWKKENQWVNYNSDNIKYLQLRAFYYINQGNIEEATEILDELSSRDQDENELGFYYYYKGLISQDKTDYAKSIRYFKKSDDKYFIQLPLLQLERMGADLALLNLISI
notes: AimR of Bacillus phage phi3T (GenBank KY030782.1) with Y341A and E371A; also called phAim^Y341A/E371A; phAimR^Y341/E371A; source: E. coli BL21 (DE3), purified, prepared in the same way as the wild-type protein; not shown: His6, N-terminal, cleaved
Regarding B1, the binding result is given as “no binding (condition: with 200 uM SAIRGA peptide)” in assay [3], “no binding (condition: with 82 uM SAIRGA peptide)” in assay [4], “no binding” in assay [5] and “no binding” in assay [6].
